The whole screen tested about 53,000 sequences, of which about 3,700 (7%) were called active.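 Rule for the calls: active = gene knockdowns whose robust z-score for IL-1 alpha signal is at least 2 or at most -2, so actives lie on both sides; inactive = the rest.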 This is one part of the list.
assay: Components of the Cytosolic LPS Sensing Pathway: Gene Identification via Genome-wide siRNA Screen; conditions: RAW264.7 macrophages, IL-1a HTRF, actives lie on both sides, screened at 100 nM (by protocol), cells primed 5 h with Pam3CSK4 first;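 note: robust z of the log signal after scaling to non-targeting control siRNA wells of the plate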
In short: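 Supernatant IL-1a by HTRF from RAW264.7 cells primed with Pam3CSK4 (5 hours) and transfected with LipidA (24 hour) after 48h siRNA knockdown at 100 nM; cell viability checked with CellTiter-Glo.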

| Sequence | z-score |
| --- | --- |
| GGAAGGAGAGACCAUUGAGTT against Nudt1 | inactive: -1.48 |
| GCAUCAACUGCUGGUCUAGTT against Spata31d1a | inactive: -1.31 |
| GCAGAAAAAGGAAGGCCACTT against Xlr3c | inactive: 0.668 |
| GGCGCAGUAUCACAGUCUUTT against Tle1 | inactive: 1.02 |
| GGUCUACUUUUACGUCUCCTT against Nfatc4 | inactive: -0.339 |
| GGUGUUCAAGUACCAGUAUTT against Egln2 | inactive: -0.421 |
| CCAGGAACCUAUUGAAUCUTT against Plpp7 | inactive: 1.15 |
| GAUGCUCGAGAAUCUACUCTT against Olfr284 | inactive: 1.09 |
| GGUCAAUACAAAGAAACUATT against Rabl2 | inactive: 0.226 |
| CGACUUCAUAAUUAUGCAATT against Als2 | inactive: -1.43 |
| GGUUUUCUAUGGAAGAGAUTT against Igdcc4 | inactive: 0.835 |
| GGUGGUUUACCAAACGGUGTT against Ces2g | inactive: -0.00874 |
| GGUAUUCACCAUUAUGACUTT against Olfr186 | inactive: -1.49 |
| GCCCUUAUUAAACCAUUUGTT against Usp9x | inactive: -0.641 |
| GGACACAGUUGAAAAGGUUTT against Kcnh1 | inactive: -1.65 |
| GGAUUUCAUGUUUGAGAUCTT against Unc13b | inactive: -1.77 |
| GGAAUUUGUCAACCGGACCTT against St6galnac6 | active: 3.31 |
| GCGGCUACAGAUCCUAAUGTT against Khsrp | inactive: 0.32 |
| GCUUUGAUGUCGAUGGGCUTT against Arg1 | active: -2.01 |
| CCACCUGGUUUAUCAAAAUTT against Cnot4 | inactive: -0.12 |
| GGUAGAAGGUCCUGAAGAATT against Clybl | inactive: 0.732 |
| GGGCUGAUUGACAAGUACUTT against Miox | inactive: 1.68 |

| Sequence | z-score |
| --- | --- |
| GCCUGGAACGAACUCUUUUTT against Zbtb43 | inactive: 1.28 |
| UACAUACAGGCUGUCUGUUTT against Olfr181 | inactive: 0.0754 |
| GGCAGUUAUGAUAAAGAUUTT against Slc25a16 | inactive: -0.896 |
| ACUGUAUACAAUUUCUUGCTT against Olfr206 | inactive: 0.794 |
| GGUCGAUCCAAGGAAAGAUTT against Nipsnap2 | inactive: -0.572 |
| GAACUUGAUUGUCCUCCUGTT against Mc2r | inactive: 0.0964 |
| CCUUUGUAGUGCUAGUUAUTT against Tmem181a | inactive: -1.55 |
| UGGGAAGGUGCUCACUGAGTT against Dnph1 | active: -2.53 |
| GGUAACUGGGAUUGUAUUUTT against Cbln4 | inactive: -0.41 |
| GGGAAAGAUAGUAGAAGUCTT against Gmpr2 | inactive: 0.353 |
| GGAGUGAAUACUGGUGCUGTT against Crip2 | inactive: 0.453 |
| GGUACGGUGUUUUGGAUACTT against Fam174a | inactive: 0.00664 |
| GCCUGUUCCGCCAUUCAUGTT against Flii | inactive: -0.2 |
| GGGUCAGUCAGGAAUGUUGTT against Mad2l1 | inactive: -0.233 |
| CCCUAUGACAAGAAAAAGCTT against Rpl13a | inactive: 0.489 |
| GGUGAAAAACUAUAGCAACTT against Mtx2 | inactive: 0.216 |
| GCAAAUCAAACGAUCAGCUTT against Cxxc1 | inactive: -1.51 |
| GCUCUUUCUUCAUUCCACATT against Krtap5-5 | inactive: 1.29 |
| GGUAGAGUACCCUGUCAUGTT against Mgst3 | inactive: -0.767 |
| GCCUUACGUGUCAGACUAUTT against Theg | inactive: -0.436 |
| CGAUAUGCAUGCGAAUAGATT against Rtl3 | inactive: -0.0384 |
| GCAGUAUUUUGCUAUCAUATT against Ccdc63 | inactive: 0.529 |

| Sequence | z-score |
| --- | --- |
| GGGAUAACUCACACCACGGTT against Bscl2 | inactive: -0.224 |
| AUCGAAACCCUGGAGUCGUTT against Nrp | inactive: -1.47 |
| GGAUGGCUUUCAUAUCCGATT against Rpl10 | inactive: 1.12 |
| GGAUGUUAAAGCCAUAUACTT against Msh6 | inactive: -0.788 |
| GCAAGACACUUGAUAACUCTT against Znrd1as | active: 2.34 |
| GGCUAAAAAAGACUUGGAATT against Pms1 | inactive: 0.0582 |
| GCCGUAACUGCUCUGAAUGTT against Rnf34 | inactive: 0.28 |
| GAACUUGAUCCUCCCUGUCTT against Bglap3 | inactive: -0.925 |
| CCUUAUCAAAAGCAUGCUUTT against Uhmk1 | inactive: 0.926 |
| CGAUCAACUAUGCCAUUGGTT against Rpusd1 | inactive: -1.91 |
| GGUGAUUUUAAUAUGCCUGTT against Cox15 | inactive: -0.029 |
| GGUGACCAAGAUGCUGUUUTT against Nmur1 | inactive: -0.803 |
| GGAUAUGGUUUUUAGACACTT against Stimate | inactive: 0.155 |
| AUGACUAGAUACUCAGAUGTT against 4930451E10Rik | inactive: 1.19 |
| GCCGGAUACUCAAAUAACGTT against Svs5 | inactive: -1.23 |
| GGAGGAUGCAGCUAACAAUTT against Tuba8 | inactive: 0.0966 |
| GGUCGGUUGCUUUAGUGAATT against Magee2 | inactive: 1.42 |
| GGCUAAAGCGCAAAAGGGCTT against Nav1 | inactive: 0.492 |
| GGCAAAGUACUACGUGCAGTT against Sh3bp5 | inactive: -0.225 |
| GGAUCAAUGCUAAGCUCCATT against Olfr1176 | inactive: 0.0409 |
| GGGCCAGGUAUUCAUGGAATT against Ciapin1 | inactive: -0.0694 |
| CCAUCUUGAGUGAUAAGAATT against St3gal4 | inactive: -0.0981 |

| Sequence | z-score |
| --- | --- |
| GGAUAUGCUCUCUUGGCUCTT against Ctsk | active: -2.07 |
| GCUCAGAAAUUAAUCAUCATT against C330011M18Rik | inactive: -0.793 |
| GGAAGAGUGUACCAGUGUUTT against Ccdc80 | inactive: 0.559 |
| GCUAUUGAUGAACCUAACATT against Trpc5 | inactive: -0.342 |
| GGAAAUCUCACGUAAUUAATT against Anxa9 | inactive: -0.885 |
| GAUUCCACGCCAAUUCAUCTT against Ccl3 | inactive: 1.52 |
| GGCAUAAGCCAUUCAGCCGTT against Fastkd2 | inactive: -0.56 |
| CCUGGACCCAUGAAGUCUUTT against Ahnak | inactive: 0.911 |
| GGCUGCUCGAAUCAGUCAUTT against Slc27a3 | inactive: 0.237 |
| CCCAGCUCCUCCAAAUAGUTT against Rwdd3 | inactive: -0.149 |
| GACCUUGAAGAAGCCAAUCTT against Entr1 | inactive: 0.095 |
| CGCUUAAAGACCUCAUCUCTT against Ap1b1 | inactive: 0.169 |
| GGCCUUCUAUUUUGUCAAUTT against Limd1 | inactive: 0.403 |
| GGGAGUCCUGAAGGACUACTT against Lgmn | inactive: -0.0947 |
| CCAAGACCGGUUAAAAGAGTT against Myo1e | inactive: -0.252 |
| GCCACCUUCCAAGCUCAAATT against H2bu2 | inactive: 0.48 |
| GGUUUCUGUCCAGAUAAAATT against Ykt6 | inactive: -0.535 |
| GGCGAAGGAAGAGUGUGAATT against Sox8 | inactive: -0.668 |
| GGCAACUUUUUACACAAAGTT against Vmn1r14 | inactive: 1.74 |
| GCGAGGAGAGUGUGUUUUCTT against Bop1 | active: 2.08 |
| GGCAAAAUUGGCAAAGAAUTT against Tollip | inactive: 0.507 |
| GGGAUUGUUCGAGUUGUCUTT against Phtf2 | inactive: -1.41 |

Four entries from above, reformatted:
GGAUAUGCUCUCUUGGCUCTT against Ctsk
  z-score: active: -2.07
GCUCAGAAAUUAAUCAUCATT against C330011M18Rik
  z-score: inactive: -0.793
GGAAGAGUGUACCAGUGUUTT against Ccdc80
  z-score: inactive: 0.559
GCUAUUGAUGAACCUAACATT against Trpc5
  z-score: inactive: -0.342

(listing goes on)

| Sequence | z-score |
| --- | --- |
| GGAAAACACACUUUUCUUUTT against Thap2 | inactive: -0.119 |
| GGUGUUAUCAGAAUUCAGATT against Cars | active: 2.6 |
| GGCACACCUUUUGUUAGUGTT against Ywhag | inactive: -1.94 |
| CCUAAUAAAAUCGAAACAGTT against Alox8 | inactive: -0.415 |
| GGAACCUUCUUCCUGAUGATT against Oprm1 | inactive: -0.797 |
| GGGCUCGUCAUGAUAUUUGTT against Rnf41 | inactive: 0.166 |
| GGGUGAUGUUCUUCCUGGATT against Gpcpd1 | inactive: 0.275 |
| GGUUUUUUUGCUAAUUAGCTT against Chid1 | inactive: 0.472 |
| CGUGUGGUAACUUGAAGGGTT against Sp140 | inactive: -0.456 |
| GGGACUGUGGAUGGAAUGUTT against Cldn14 | inactive: 0.144 |
| CGUUGUGAGGUUAUACGACTT against Tbc1d20 | inactive: -0.862 |
| GGAACACAGUUCUCUGAGATT against Ighmbp2 | inactive: -0.68 |
| GGUACAAAGACUGACGAGUTT against Gnptg | inactive: 0.00278 |
| CCUUACUUGUUCUCAUUUGTT against Spsb1 | inactive: 0.971 |
| CCAACAUGCUCUAUCUUUUTT against Oacyl | inactive: 0.434 |
| CGUAUGUAUGCCAACCUGGTT against Arhgap39 | inactive: -1.05 |
| ACAUGGGAGUAUUUGAUCCTT against Cnih4 | inactive: -1.23 |
| GGAGGUUCAGAAAUUUGUCTT against Nhp2 | inactive: -0.796 |
| GGGCUCAACAGUUUCAACCTT against Mrpl4 | inactive: 1.17 |

Source: PubChem BioAssay AID1508600 (Functional Genomics Laboratory (NCATS/FGL), 2020)
